PubChem BioAssay AID1259425 – University of Nebraska Medical Center – 2018
Here is a random part of about 14,000 reagents tested. Reagent sequences are not shown. Not given: the time to read-out.

- Test: 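Seek colon cancer weak points whose silencing resembles KSR1 loss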 (primary screen)
- System: HCT116 human colon cancer cells
- Reagent: siRNA pool against human genes, 50 nM siRNA
- Measurement: 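mRNA of six signature genes measured together by branched-DNA assay after 50 nM siRNA pool, blank removed, divided by geometric mean of two housekeeping genes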
- Direction: BNIP3L mRNA: higher = more BNIP3L transcript after knockdown; NDRG1 mRNA: higher = more NDRG1 transcript after knockdown; BNIP3 mRNA: higher = more BNIP3 transcript after knockdown; ALDOC mRNA: higher = more ALDOC transcript after knockdown; ACSL5 mRNA: higher = more ACSL5 transcript after knockdown

no.	target	BNIP3L mRNA, set 1	NDRG1 mRNA, set 1	BNIP3 mRNA, set 1	ALDOC mRNA, set 1	ACSL5 mRNA, set 1
1	ADGRG2	0.232	0.407	0.271	0.0609	0.262
2	IFNA8	0.0632	0.101	0.17	0.0279	0.13
3	TRIM16	0.152	0.326	0.321	0.0493	0.22
4	CACNA1A	0.194	0.575	0.243	0.0237	0.112
5	HSD11B1	0.0599	0.0633	0.252	0.0285	0.12
6	CWF19L1	0.188	0.364	0.345	0.0733	0.287
7	MTSS1	0.156	0.258	0.293	0.0381	0.159
8	ADCY3	0.109	0.355	0.316	0.0216	0.264
9	LSM3	0.202	0.337	0.514	0.0796	0.178
10	MTMR8	0.0887	0.103	0.26	0.0245	0.107
11	BCL7B	0.136	0.256	0.438	0.0171	0.386
12	AKAP19	0.439	0.398	0.53	0.225	1.15

As entered above:
Under “ACSL5 mRNA, set 1”, MTMR8 has 0.107
Under “BNIP3L mRNA, set 1”, ADCY3 is entered as 0.109

The results go on:
no.	target	BNIP3L mRNA, set 1	NDRG1 mRNA, set 1	BNIP3 mRNA, set 1	ALDOC mRNA, set 1	ACSL5 mRNA, set 1
13	CKB	0.103	0.0998	0.347	0.0064	0.172
14	TELO2	0.0717	0.286	0.171	0.0171	0.249
15	TMOD1	0.0593	0.11	0.335	0.00675	0.165
16	NRXN2	0.184	0.234	0.432	0.0499	0.0839
17	VSIG2	0.131	0.149	0.262	0.0167	0.235
18	EEF2K	0.104	0.101	0.315	0.00219	0.145
19	PFDN2	0.0612	0.171	0.284	0.0103	0.203
20	NTNG1	0.129	0.248	0.182	0.0506	0.265
